Our source for the binding values is doi:10.1101/2022.12.21.521423 (bioRxiv, 2022).

Sequences of proteins named here, by UniProt entry; tags and fusion partners are left off. A change or cut given only in a name is not applied to a line headed by its entry. Residues count along the entry.
UniProt Q96QE4, 28-905, stated change not applied: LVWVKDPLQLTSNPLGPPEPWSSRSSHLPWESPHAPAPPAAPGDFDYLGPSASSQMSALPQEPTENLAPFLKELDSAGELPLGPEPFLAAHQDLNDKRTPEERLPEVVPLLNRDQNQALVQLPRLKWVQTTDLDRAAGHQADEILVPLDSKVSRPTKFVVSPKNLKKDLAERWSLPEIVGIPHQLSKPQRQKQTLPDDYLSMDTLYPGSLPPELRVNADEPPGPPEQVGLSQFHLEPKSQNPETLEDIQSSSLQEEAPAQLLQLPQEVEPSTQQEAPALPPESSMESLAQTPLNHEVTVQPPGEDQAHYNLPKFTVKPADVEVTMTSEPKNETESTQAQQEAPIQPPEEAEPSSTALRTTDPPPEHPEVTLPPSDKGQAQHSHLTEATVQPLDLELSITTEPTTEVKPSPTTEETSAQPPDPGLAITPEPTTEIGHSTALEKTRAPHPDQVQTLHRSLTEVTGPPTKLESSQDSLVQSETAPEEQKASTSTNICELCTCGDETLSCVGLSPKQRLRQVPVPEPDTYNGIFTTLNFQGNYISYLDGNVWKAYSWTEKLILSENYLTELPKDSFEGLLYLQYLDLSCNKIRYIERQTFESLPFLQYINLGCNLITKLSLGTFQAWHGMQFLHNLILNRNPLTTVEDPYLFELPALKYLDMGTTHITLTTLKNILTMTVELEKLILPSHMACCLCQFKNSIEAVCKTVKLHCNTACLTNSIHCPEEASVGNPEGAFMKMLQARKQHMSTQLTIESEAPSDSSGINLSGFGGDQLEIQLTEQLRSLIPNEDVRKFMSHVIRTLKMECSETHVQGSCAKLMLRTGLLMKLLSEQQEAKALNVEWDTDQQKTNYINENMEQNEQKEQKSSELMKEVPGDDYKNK

No constants are given. Whether binding was seen depends on the method and setting. Binding seen in cells or lysates may run through a third protein. These calls come from enrichment with a bait or labelling near it, and not all partners need be listed.

In the test the target is LRRC37B_ECTO-Fc (human) (UniProt Q96QE4). Put plainly: affinity purification with mass spectrometry.

For the substance “SCN1B of rat brain (from UniProt Q00954 19-218)”, the binding result is on record as “binds”.
